Laboratory results taken from publication PMC12040169 (PLOS Biology, 2025).
Some of the results follow.

system: T1, CTL2-GFP (C. trachomatis L2/434/Bu, GFP-expressing); parameters: species or system HeLa; Intracellular C. trachomatis growth in HeLa cells, bulk GFP fluorescence relative to DMSO; conditions: bulk GFP, single well; 28.5 h, 10 µM; inhibitor
T1 construct: L2/434/Bu, GFP-expressing

SMILES | % of control remaining [%]
Cc1cc(Cl)c(S(=O)(=O)Nc2cccnc2)cc1OCC(N)=O [CBK266523] | 179.8
CCOC(=O)c1noc2nc(C)n(Cc3nc(-c4ccccc4)oc3C)c(=O)c12 [CBK294400] | 137.827
Cn1nnc2cc(C(=O)NCCN3CCCCC3CO)ccc21 (centres unmarked) [CBK307268] | 133.718
CCC(C)NC(=O)C1(Cc2cccc(-c3ccc(OC)cc3)c2)CCOCC1 (centres unmarked) [CBK286513] | 101.436
CS(=O)(=O)N1CC2(CCN(Cc3cccc4cccnc34)CC2)c2ccccc21 [CBK136955] | 120.789
COc1cc(S(=O)(=O)N2CCCN(S(=O)(=O)c3cc(OC)c(Cl)cc3OC)CC2)c(OC)cc1Cl [CBK266489] | 136.775
COc1ccc(C2CCN(CC(=O)NC3CCCC3)CC2)cc1 [CBK283565] | 103.241
COCC(C)NC(=O)CCn1ccc2ccncc21 (centres unmarked) [CBK285172] | 124.055
Cc1nc(C)n(CC2CCCN(Cc3cn4ccccc4n3)C2)n1 (centres unmarked) [CBK304028] | 133.449
O=C(Nc1sccc1C(=O)N1CCOCC1)C(Sc1ccccc1)c1ccccc1 (centres unmarked) [CBK268165] | 95.7644
COc1ccc2c(C)c(CCC(=O)N(C)CC(=O)O)c(=O)oc2c1 [CBK286731] | 131.388
CC1(C)CCCC2=C1CC(C(=O)O)C(C(=O)O)C2 (centres unmarked) [CBK272329] | 122.585
CCc1nn(CCN2CCCC2)c(=O)c2cc3sccc3n12 [CBK284075] | 154.455
CC(C)(C)CNc1ccc(S(=O)(=O)N2CCOC2=O)cc1 [CBK028347] | 95.5486
CCCc1cc(C2CCCCCN2C(=O)c2c(C)noc2C)no1 (centres unmarked) [CBK284919] | 123.74
O=C(CCN1C(=O)c2ccccc2C1=O)N(CCO)Cc1ccccc1 [CBK265565] | 88.0563
CC1=C[C@@H](CO)[C@H](C(C)C)C[C@H]1CC(=O)NCc1cccnc1 [CBK289218] | 130.723
Oc1ccc(-n2ncc(-c3cccc(C(F)(F)F)c3)n2)cc1 [CBK112677] | 67.5126
O=C(Nc1nc2c(s1)CCCCC2)C1CCN(S(=O)(=O)c2ccc(F)cc2)C1 (centres unmarked) [CBK285708] | 89.9949
Cc1nc(C2CC(=O)N(Cc3ccccn3)C2)n(-c2ccccc2F)n1 (centres unmarked) [CBK306895] | 139.721
FC(F)Oc1ccc(-c2ccnc(S)n2)cc1 [CBK288385] | 151.518
CC(=O)c1ccccc1NC(=O)c1cc2ccc(F)cc2nc1C [CBK297929] | 105.138
O=[N+]([O-])c1ccc(CN2CCC(Oc3nccnc3OCc3cccnc3)CC2)cc1 [CBK083162T] | 95.5778
Cn1cc(C(=O)Nc2c(F)cc(F)cc2OC2CCNCC2)c2ccccc21 [CBK050328T] | 107.276
Cc1ccccc1-c1cc(C(=O)NCCCn2cc(Br)cn2)c2ccccc2n1 [CBK267758] | 95.0924
CCC(C)(C)c1ccc(S(=O)(=O)N(C)CCC#N)cc1 [CBK043395] | 95.688

At a glance, some entries already given:
SMILES | % of control remaining [%]
CCC(C)NC(=O)C1(Cc2cccc(-c3ccc(OC)cc3)c2)CCOCC1 (centres unmarked) [CBK286513] | 101.436
CS(=O)(=O)N1CC2(CCN(Cc3cccc4cccnc34)CC2)c2ccccc21 [CBK136955] | 120.789
COc1cc(S(=O)(=O)N2CCCN(S(=O)(=O)c3cc(OC)c(Cl)cc3OC)CC2)c(OC)cc1Cl [CBK266489] | 136.775
COc1ccc(C2CCN(CC(=O)NC3CCCC3)CC2)cc1 [CBK283565] | 103.241
COCC(C)NC(=O)CCn1ccc2ccncc21 (centres unmarked) [CBK285172] | 124.055
Cc1nc(C)n(CC2CCCN(Cc3cn4ccccc4n3)C2)n1 (centres unmarked) [CBK304028] | 133.449
O=C(Nc1sccc1C(=O)N1CCOCC1)C(Sc1ccccc1)c1ccccc1 (centres unmarked) [CBK268165] | 95.7644
COc1ccc2c(C)c(CCC(=O)N(C)CC(=O)O)c(=O)oc2c1 [CBK286731] | 131.388
CC1(C)CCCC2=C1CC(C(=O)O)C(C(=O)O)C2 (centres unmarked) [CBK272329] | 122.585
CCc1nn(CCN2CCCC2)c(=O)c2cc3sccc3n12 [CBK284075] | 154.455
CC(C)(C)CNc1ccc(S(=O)(=O)N2CCOC2=O)cc1 [CBK028347] | 95.5486
CCCc1cc(C2CCCCCN2C(=O)c2c(C)noc2C)no1 (centres unmarked) [CBK284919] | 123.74
O=C(CCN1C(=O)c2ccccc2C1=O)N(CCO)Cc1ccccc1 [CBK265565] | 88.0563
CC1=C[C@@H](CO)[C@H](C(C)C)C[C@H]1CC(=O)NCc1cccnc1 [CBK289218] | 130.723
Oc1ccc(-n2ncc(-c3cccc(C(F)(F)F)c3)n2)cc1 [CBK112677] | 67.5126
O=C(Nc1nc2c(s1)CCCCC2)C1CCN(S(=O)(=O)c2ccc(F)cc2)C1 (centres unmarked) [CBK285708] | 89.9949
Cc1nc(C2CC(=O)N(Cc3ccccn3)C2)n(-c2ccccc2F)n1 (centres unmarked) [CBK306895] | 139.721
FC(F)Oc1ccc(-c2ccnc(S)n2)cc1 [CBK288385] | 151.518
CC(=O)c1ccccc1NC(=O)c1cc2ccc(F)cc2nc1C [CBK297929] | 105.138

(listing goes on)

SMILES | % of control remaining [%]
CC(NC(=O)N(CCCN)Cc1c[nH]c(-c2ccccc2)n1)c1cccc2ccccc12 (centres unmarked) [CBK034672C] | 57.336
O=C(NCCN1CCOCC1)c1ccc(Nc2cncc(-c3ccc(O)cc3)n2)cc1 [CBK115692] | 132.361
COc1ncnc(C)c1-c1cc(C)c(OC)c(C)c1 [CBK306852] | 110.23
Cc1ccc(S(=O)(=O)Nc2cccc(NC(=O)c3ccco3)c2)cc1C(=O)O [CBK296638] | 135.682
COc1cc(C2=NS(=O)(=O)NC3=C2CCCC3)cc(OC)c1OC [CBK010423] | 144.557
COc1ccc(I)cc1S(=O)(=O)NCc1ccccn1 [CBK264019] | 125.306
CCn1cncc1CN1CCCC(c2cc3cccnc3[nH]2)C1 (centres unmarked) [CBK284993] | 157.181
c1ccc(-c2nc3ccc(Oc4ccc5nc(-c6ccccn6)c(-c6ccccn6)nc5c4)cc3nc2-c2ccccn2)nc1 [CBK261964] | 124.231
CN(C)CCCC(O)(c1ccccc1)c1ccccc1 [CBK012599] | 71.3147
COc1cccc(CN2CCN(C(=O)C3(C)CC3(Cl)Cl)CC2)c1 (centres unmarked) [CBK268121] | 107.417
Cc1cc(NC(=O)C(C)N(C)CCOc2ccccc2Cl)no1 (centres unmarked) [CBK304466] | 94.5381
CSc1ccccc1NC(=O)c1cccn(Cc2ccc(C)cc2)c1=O [CBK294426] | 159.557
O=C(CSC1=NC(=O)C(Cc2ccccc2)C(=O)N1)Nc1ncccn1 (centres unmarked) [CBK263906] | 72.1456
NCCNC(=O)c1cc2cc(OC(F)(F)F)ccc2[nH]1 [CBK107368] | 132.79
COc1cccc(CN2CC[C@@H]3[C@H](C2)[C@@H](c2ccc(F)cc2)CN3C(=O)c2ccccc2)c1 [CBK286292] | 87.255
O=C(c1ccc2c(c1)CCO2)N1CCC(Sc2ccc(-c3ccccc3)cc2)CC1 [CBK131953] | 67.8546
CN1CCC(N2CC[C@@H]3[C@H]2C(=O)NC[C@H](CCC(=O)NCc2ccccc2)N3C)CC1 [CBK289026] | 87.5494
COc1ccc(Cl)cc1CN(C)C(=O)c1ccc(C)[nH]c1=O [CBK305794] | 168.021
Cc1cccc(CCNC(=O)N2CCC(Cc3cnn(C)c3)C2)c1 (centres unmarked) [CBK305137] | 83.0185
Cc1noc(C)c1CC(=O)NCC(C)(C)N1CCCCC1 [CBK281863] | 106.133
CC[C@H]1CN(C(=O)c2cccnc2)CC[C@H]1CC(=O)NCc1cccs1 [CBK288773] | 107.289
O=[N+]([O-])c1ccc(Sc2ccccc2C2=NCCCN2)nc1 [CBK006747C] | 116.844
O=C(Nc1ccc(S(=O)(=O)N2CCCCC2)cc1)c1ccc(CN2CCOCC2)cc1 [CBK264002] | 88.9131
CN1CCC(N(C)S(=O)(=O)c2ccc(C(C)(C)C)cc2)C1 (centres unmarked) [CBK059036T] | 110.618
CC(=O)NS(=O)(=O)c1ccc(NC(=O)/C=C/c2cccc([N+](=O)[O-])c2)cc1 [CBK300492] | 119.599
CS(=O)(=O)NCC1CCCN(C(=O)Nc2cccc(Cl)c2)C1 (centres unmarked) [CBK305736] | 130.828

SMILES | % of control remaining [%]
CC(CCc1ccc(O)cc1)NC1CCCC1 (centres unmarked) [CBK033987] | 120.654
Cc1cc(C(=O)CN(C)S(=O)(=O)c2ccc(Cl)c(Cl)c2)c(C)n1C [CBK295661] | 109.26
COc1ccc(Oc2nccc(N3CCCN(Cc4ccc(C(F)(F)F)cc4)CC3)n2)cc1OC [CBK084152] | 76.9647
O=C(NCc1ccc(-c2csnn2)cc1)c1c(F)cccc1F [CBK149310] | 103.314
CC(=O)Nc1sc2c(c1C(=O)O)CCc1ccccc1-2 [CBK126812] | 69.7873
c1cc2c(cc1CNc1nnn[nH]1)OCO2 [CBK018783] | 131.126
CCOc1cc(NC2CCN(C(=O)C3(CCOC)CC3)CC2)ncn1 [CBK304434] | 119.467
O=C(c1cccs1)N1CCN(S(=O)(=O)c2cccc([N+](=O)[O-])c2)CC1 [CBK266184] | 113.062
O=C(NCCCc1nc2ccccc2[nH]1)c1ccccc1 [CBK268429] | 134.744
COc1cc(CN2CCN(Cc3cccc([N+](=O)[O-])c3)CC2)c([N+](=O)[O-])cc1OC [CBK263111] | 100
COC(=O)[C@H](NC(=O)C1CCN(C(=O)OCc2ccccc2)CC1)c1ccccc1 [CBK081466] | 124.605
CNC(=O)c1cnn2c(C)c(Cc3cccnc3)c(C)nc12 [CBK162165] | 130.586
COc1ccccc1NC(=O)Cn1cnc2sc(C(=O)NC(C)C)c(C)c2c1=O [CBK071847] | 119.551
CN(C)c1ccc(C=C2CCCC3C2=NN(C(=O)CCC(=O)O)C3c2ccc(N(C)C)cc2)cc1 (centres unmarked) [CBK296065] | 148.295
Cc1cc(C)cc(C(=O)NC(=S)Nc2sc(C)c(C)c2C#N)c1 [CBK267089] | 155.347
Cc1nc(CCNC(=O)c2cc(C(C)C)n(C(C)(C)C)n2)cs1 [CBK304082] | 104.993
COc1cc([N+](=O)[O-])ccc1NC(=O)CS(=O)(=O)Cc1ccccc1 [CBK266704] | 118.766
O=[N+]([O-])c1ccc(-c2ccc(/N=C/c3ccco3)cc2)cc1 [CBK261639] | 107.548
N#C/C(=C\c1cn(-c2ccccc2)nc1-c1ccc(S(=O)(=O)N2CCCCC2)cc1)c1nc2ccccc2c(=O)[nH]1 [CBK266268] | 126.393
COC(=O)[C@@H](C)NC(=O)[C@H]1CN(C(=O)Nc2ccccc2)CCN1C(C)=O [CBK289627] | 143.884
CCN(CC)c1ccc(CN(CCCN(C)C)C(=O)NCc2ccc(F)cc2)cc1 [CBK159410] | 122.698
Cc1cccc(C)c1NC(=O)CSCC(=O)Nc1ccc2ccccc2c1 [CBK263274] | 134.323
Cn1ncnc1COc1ccc(S(=O)(=O)N2CCCCC2CN)cc1 (centres unmarked) [CBK304313C] | 127.119
CC(=O)N1CCCN(C(=O)Cn2cnc3ccc(F)cc3c2=O)CC1 [CBK245206] | 112.537
O=c1cc(CSc2nnc(-c3ccccc3)[nH]2)nc2[nH]cnn12 [CBK294398] | 142.419
